Source: doi:10.1101/741033
Like-named read-outs stand apart in the source and are kept apart here. Results are given in words; binding and its absence hold for the method and conditions named. In cells and extracts the contact can be indirect. These calls come from enrichment with a bait or labelling near it, and not all partners need be listed. For part of these data: Where a sequence is shown, tags or fusion partners need not be part of it.

T1: GFP-tagged ring exported protein 1 (REX1-GFP) (P. falciparum 3D7) (UniProt Q8I2G1)
T1 sequence: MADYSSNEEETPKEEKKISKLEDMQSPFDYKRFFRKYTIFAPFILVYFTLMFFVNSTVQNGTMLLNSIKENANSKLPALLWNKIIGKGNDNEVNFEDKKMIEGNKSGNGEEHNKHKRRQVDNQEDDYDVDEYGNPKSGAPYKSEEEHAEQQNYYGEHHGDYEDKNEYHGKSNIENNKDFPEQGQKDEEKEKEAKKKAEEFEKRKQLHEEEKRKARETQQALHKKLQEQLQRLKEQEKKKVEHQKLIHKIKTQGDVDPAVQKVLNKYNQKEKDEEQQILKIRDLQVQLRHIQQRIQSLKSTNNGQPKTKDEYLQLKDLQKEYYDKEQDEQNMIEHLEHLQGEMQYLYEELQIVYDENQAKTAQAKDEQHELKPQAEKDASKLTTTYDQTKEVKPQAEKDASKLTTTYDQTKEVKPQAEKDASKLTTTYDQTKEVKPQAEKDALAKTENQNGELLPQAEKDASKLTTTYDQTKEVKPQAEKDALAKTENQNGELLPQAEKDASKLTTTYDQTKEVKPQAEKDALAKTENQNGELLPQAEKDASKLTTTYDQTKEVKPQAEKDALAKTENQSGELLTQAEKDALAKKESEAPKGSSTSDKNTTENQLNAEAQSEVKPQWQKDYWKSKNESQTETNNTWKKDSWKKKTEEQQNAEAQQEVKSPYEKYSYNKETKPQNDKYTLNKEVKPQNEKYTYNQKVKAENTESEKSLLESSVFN

B1: ring exported protein 1 (REX1), endogenous (protein, UniProt Q8I2G1 1-713)
chain: MADYSSNEEETPKEEKKISKLEDMQSPFDYKRFFRKYTIFAPFILVYFTLMFFVNSTVQNGTMLLNSIKENANSKLPALLWNKIIGKGNDNEVNFEDKKMIEGNKSGNGEEHNKHKRRQVDNQEDDYDVDEYGNPKSGAPYKSEEEHAEQQNYYGEHHGDYEDKNEYHGKSNIENNKDFPEQGQKDEEKEKEAKKKAEEFEKRKQLHEEEKRKARETQQALHKKLQEQLQRLKEQEKKKVEHQKLIHKIKTQGDVDPAVQKVLNKYNQKEKDEEQQILKIRDLQVQLRHIQQRIQSLKSTNNGQPKTKDEYLQLKDLQKEYYDKEQDEQNMIEHLEHLQGEMQYLYEELQIVYDENQAKTAQAKDEQHELKPQAEKDASKLTTTYDQTKEVKPQAEKDASKLTTTYDQTKEVKPQAEKDASKLTTTYDQTKEVKPQAEKDALAKTENQNGELLPQAEKDASKLTTTYDQTKEVKPQAEKDALAKTENQNGELLPQAEKDASKLTTTYDQTKEVKPQAEKDALAKTENQNGELLPQAEKDASKLTTTYDQTKEVKPQAEKDALAKTENQSGELLTQAEKDALAKKESEAPKGSSTSDKNTTENQLNAEAQSEVKPQWQKDYWKSKNESQTETNNTWKKDSWKKKTEEQQNAEAQQEVKSPYEKYSYNKETKPQNDKYTLNKEVKPQNEKYTYNQKVKAENTESEKSLLESSVFN
B2: membrane-associated histidine-rich protein 2 (MAHRP2) (protein, UniProt Q8IDG8 1-137)
chain: MQPCPYDVYNQINHVGTHWAQHLGEHLHHLAHMHQHTPHVHHHIPHVHTLAHDRPCMPITAFFCRHHEHCSSHLMLIFLLLAFFLVVVYRLYNEVVNSAKTVRIVNITPVNEEHKAEASKEQSKSTSDSSTSTQQTL
B3: PF3D7_0702500 (protein, UniProt Q8IC42 1-253)
chain: MAYPLLEDDLRSIRVAFGTCPGNSTMQFGERFWQGFFFGVIIFFVLSKYIRSYKKRKGMRILKSSSVTKGRLYRGTVFDEDDNVDGHHKKTKAHGLFEEIEKRNGFDLNDDTTNSNNLGEGTHSAVHNLDGQKESQLYKNNSDGSTENHLSGSNSDGRNSSQHSVGSHSVSSQEHKKEHSTHDLPAGRNYSLGNLSTGTTSQGSTSSRHYSLGGQPSSSGRSFSGSKYNTSNLASSSTTESSVSGLNTNEAHV

Legend:
Assay in all cases: affinity purification with mass spectrometry
[1] = target: GFP-tagged PTP5 (PTP5-GFP) (P. falciparum 3D7) (UniProt Q8IK15)
[2] = target: GFP-tagged GEXP10 (GEXP10-GFP) (P. falciparum 3D7) (UniProt Q8I2D9)
[3] = target: GFP-tagged membrane-associated histidine-rich protein 1 (MAHRP1-GFP) (P. falciparum 3D7) (UniProt C0H5L9)
[4] = target: T1, GFP-tagged ring exported protein 1 (REX1-GFP) (P. falciparum 3D7)
[5] = target: GFP-tagged virulence complex assembly protein 1 (VCAP1-GFP) (P. falciparum 3D7) (UniProt Q8IEJ0)
[6] = target: GFP-tagged PTP5 (PTP5-GFP) (P. falciparum 3D7) (UniProt Q8IK15); remark: listed apart in the source
[7] = target: T1, GFP-tagged ring exported protein 1 (REX1-GFP) (P. falciparum 3D7); remark: listed apart in the source
[8] = target: GFP-tagged PF3D7_1353100 (PF3D7_1353100-GFP) (P. falciparum 3D7) (UniProt Q8IDG9)
[9] = target: GFP-tagged PTP6 (PTP6-GFP) (P. falciparum 3D7)

Molecule	binding [2]	binding [3]	binding [5]	other results
parasite-infected erythrocyte surface protein 2 (PIESP2) (from UniProt Q8I488)	binds	binds		binding [1]: binds
P. falciparum erythrocyte membrane protein 1 (PfEMP1)				binding [4]: binds
virulence complex assembly protein 1 (VCAP1), endogenous (from UniProt Q8IEJ0)	binds	binds		
Pf322 (from UniProt Q8IHN4 1-6093)			binds	
membrane-associated histidine-rich protein 1 (MAHRP1), endogenous (from UniProt C0H5L9 1-249)	binds		binds	
GEXP10, endogenous (from UniProt Q8I2D9)		binds	binds	
B1				binding [6]: binds
B2				binding [7]: binds; binding [8]: binds
B3				binding [9]: binds
